Measurements: the supplement of paper PMC12823440, “Inhibitors supercharge kinase turnover through native proteolytic circuits” (Nature, 2025)
Counter-ions that a name gives are not always drawn. Some of the results follow. The calls rarely recur for the same compound in another form.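 In K562 cells expressing nanoluciferase-fused kinases, luminescence was recorded at 4 h intervals between 2 and 18 h, normalized as percent of control with DMSO at 100% and a positive control at 0%. A significant (2 sigma) signal drop marks a time point as decreased. The authors' rule for a hit is not shown and takes in more than the number of time points.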

Protein sequences, listed by entry. Tags and fused reporters are not part of them. Lines headed by an entry give the natural chain unless they say otherwise; changes in a name come on top.
UniProt P00519, whole entry: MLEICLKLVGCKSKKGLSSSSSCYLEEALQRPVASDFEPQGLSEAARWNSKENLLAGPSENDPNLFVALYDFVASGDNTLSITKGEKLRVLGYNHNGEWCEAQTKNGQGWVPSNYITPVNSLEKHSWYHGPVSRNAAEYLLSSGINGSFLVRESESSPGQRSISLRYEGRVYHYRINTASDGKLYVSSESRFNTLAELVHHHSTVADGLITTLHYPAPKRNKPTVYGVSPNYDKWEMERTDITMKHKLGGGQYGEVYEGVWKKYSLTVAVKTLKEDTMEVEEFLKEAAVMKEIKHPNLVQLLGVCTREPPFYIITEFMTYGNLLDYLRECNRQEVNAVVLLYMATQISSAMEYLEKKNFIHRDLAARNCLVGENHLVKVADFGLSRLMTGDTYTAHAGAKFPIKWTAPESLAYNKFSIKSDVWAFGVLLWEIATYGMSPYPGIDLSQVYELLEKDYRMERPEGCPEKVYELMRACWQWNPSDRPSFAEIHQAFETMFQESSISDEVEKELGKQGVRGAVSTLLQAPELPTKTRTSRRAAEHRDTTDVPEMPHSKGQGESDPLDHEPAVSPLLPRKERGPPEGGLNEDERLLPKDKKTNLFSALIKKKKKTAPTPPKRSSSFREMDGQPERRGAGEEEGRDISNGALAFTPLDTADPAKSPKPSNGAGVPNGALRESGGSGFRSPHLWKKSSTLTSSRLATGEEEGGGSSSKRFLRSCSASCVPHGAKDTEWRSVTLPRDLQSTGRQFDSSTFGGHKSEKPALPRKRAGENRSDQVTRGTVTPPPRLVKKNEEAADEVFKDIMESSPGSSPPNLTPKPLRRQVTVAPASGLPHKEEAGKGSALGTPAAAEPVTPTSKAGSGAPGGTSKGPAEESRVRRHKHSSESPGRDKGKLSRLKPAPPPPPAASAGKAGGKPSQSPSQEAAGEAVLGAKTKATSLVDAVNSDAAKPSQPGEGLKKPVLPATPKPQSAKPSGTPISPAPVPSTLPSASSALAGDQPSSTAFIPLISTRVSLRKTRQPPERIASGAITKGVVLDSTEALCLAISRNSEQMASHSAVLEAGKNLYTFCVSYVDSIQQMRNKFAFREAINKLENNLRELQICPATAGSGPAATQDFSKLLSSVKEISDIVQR
UniProt P31749: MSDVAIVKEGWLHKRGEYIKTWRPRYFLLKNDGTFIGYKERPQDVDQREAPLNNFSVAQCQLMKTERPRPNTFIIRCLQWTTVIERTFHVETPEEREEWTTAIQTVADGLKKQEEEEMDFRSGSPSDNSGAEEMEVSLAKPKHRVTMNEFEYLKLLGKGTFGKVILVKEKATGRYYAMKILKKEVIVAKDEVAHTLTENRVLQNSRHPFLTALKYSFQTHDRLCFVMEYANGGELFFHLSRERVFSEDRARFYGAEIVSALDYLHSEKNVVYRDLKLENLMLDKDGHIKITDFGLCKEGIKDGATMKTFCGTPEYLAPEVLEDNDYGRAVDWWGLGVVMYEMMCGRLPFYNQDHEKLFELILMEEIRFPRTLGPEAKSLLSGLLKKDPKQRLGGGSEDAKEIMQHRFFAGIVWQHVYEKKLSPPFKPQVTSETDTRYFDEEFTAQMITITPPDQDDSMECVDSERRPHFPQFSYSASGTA
UniProt Q9UM73: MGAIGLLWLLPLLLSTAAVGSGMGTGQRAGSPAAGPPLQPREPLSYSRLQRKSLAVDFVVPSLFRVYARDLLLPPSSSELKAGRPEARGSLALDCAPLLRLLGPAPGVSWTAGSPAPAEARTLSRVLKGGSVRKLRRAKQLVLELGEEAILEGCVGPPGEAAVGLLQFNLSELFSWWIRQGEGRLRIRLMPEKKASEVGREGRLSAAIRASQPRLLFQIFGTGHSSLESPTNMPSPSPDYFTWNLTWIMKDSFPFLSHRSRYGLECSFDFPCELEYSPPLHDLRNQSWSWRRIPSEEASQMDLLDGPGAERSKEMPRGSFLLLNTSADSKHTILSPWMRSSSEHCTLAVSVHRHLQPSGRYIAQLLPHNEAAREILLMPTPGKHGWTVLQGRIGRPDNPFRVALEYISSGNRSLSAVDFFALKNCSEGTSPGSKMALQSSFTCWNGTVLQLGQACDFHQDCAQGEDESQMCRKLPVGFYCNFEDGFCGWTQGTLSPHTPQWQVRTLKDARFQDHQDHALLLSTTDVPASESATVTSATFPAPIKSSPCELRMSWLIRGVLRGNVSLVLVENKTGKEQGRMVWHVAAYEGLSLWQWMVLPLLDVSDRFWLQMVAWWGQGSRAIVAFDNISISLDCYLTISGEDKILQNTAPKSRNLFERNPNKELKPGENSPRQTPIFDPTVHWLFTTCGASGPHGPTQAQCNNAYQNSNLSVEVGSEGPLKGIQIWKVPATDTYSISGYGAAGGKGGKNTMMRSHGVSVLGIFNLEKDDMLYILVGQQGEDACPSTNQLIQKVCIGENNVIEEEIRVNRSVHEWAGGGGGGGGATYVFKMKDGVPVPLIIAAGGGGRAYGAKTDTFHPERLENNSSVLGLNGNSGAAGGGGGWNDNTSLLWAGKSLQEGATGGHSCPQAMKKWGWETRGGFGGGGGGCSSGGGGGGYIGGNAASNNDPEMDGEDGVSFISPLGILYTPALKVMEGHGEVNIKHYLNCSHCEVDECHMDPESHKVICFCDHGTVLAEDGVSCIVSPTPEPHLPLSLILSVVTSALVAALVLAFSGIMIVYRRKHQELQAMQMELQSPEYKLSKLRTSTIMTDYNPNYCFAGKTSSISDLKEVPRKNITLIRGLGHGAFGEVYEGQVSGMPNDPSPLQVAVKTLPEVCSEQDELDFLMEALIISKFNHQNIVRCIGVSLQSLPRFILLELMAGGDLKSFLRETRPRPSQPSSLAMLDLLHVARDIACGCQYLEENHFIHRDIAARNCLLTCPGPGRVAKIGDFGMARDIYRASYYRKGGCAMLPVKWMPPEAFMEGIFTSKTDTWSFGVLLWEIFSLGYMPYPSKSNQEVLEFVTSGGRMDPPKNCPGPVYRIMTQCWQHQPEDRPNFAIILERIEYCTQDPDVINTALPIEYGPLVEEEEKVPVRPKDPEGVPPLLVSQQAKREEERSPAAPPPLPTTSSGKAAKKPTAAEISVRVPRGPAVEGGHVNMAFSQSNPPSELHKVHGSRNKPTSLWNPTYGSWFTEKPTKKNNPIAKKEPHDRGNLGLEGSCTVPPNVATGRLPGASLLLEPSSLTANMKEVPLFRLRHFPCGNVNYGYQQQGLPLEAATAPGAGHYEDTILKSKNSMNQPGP
UniProt O14965: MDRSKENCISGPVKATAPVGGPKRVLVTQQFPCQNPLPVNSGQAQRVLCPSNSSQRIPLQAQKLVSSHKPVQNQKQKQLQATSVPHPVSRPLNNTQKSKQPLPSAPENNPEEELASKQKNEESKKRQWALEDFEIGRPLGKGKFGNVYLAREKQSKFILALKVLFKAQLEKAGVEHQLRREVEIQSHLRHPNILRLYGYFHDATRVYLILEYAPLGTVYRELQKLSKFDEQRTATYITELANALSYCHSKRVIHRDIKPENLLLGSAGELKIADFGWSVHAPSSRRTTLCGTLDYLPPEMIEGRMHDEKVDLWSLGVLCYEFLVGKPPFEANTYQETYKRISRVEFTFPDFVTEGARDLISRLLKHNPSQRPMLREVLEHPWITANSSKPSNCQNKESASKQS
UniProt Q96GD4, whole entry: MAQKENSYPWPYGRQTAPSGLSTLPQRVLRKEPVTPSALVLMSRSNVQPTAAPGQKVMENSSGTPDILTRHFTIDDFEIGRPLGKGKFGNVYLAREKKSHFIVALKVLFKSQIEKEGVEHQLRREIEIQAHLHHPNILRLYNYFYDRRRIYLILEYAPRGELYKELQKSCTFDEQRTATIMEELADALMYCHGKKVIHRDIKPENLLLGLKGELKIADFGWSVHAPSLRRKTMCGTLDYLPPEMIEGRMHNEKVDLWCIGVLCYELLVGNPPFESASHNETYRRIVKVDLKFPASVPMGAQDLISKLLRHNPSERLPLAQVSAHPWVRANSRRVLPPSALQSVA
UniProt Q9UQB9: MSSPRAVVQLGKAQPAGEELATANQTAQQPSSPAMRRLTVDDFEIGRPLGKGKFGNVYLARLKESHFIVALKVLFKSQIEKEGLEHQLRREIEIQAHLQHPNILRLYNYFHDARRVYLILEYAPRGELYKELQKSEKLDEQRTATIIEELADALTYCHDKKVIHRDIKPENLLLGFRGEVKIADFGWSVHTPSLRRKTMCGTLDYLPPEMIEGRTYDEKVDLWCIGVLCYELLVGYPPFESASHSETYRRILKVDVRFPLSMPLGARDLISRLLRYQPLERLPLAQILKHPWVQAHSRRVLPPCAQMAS
UniProt P51451: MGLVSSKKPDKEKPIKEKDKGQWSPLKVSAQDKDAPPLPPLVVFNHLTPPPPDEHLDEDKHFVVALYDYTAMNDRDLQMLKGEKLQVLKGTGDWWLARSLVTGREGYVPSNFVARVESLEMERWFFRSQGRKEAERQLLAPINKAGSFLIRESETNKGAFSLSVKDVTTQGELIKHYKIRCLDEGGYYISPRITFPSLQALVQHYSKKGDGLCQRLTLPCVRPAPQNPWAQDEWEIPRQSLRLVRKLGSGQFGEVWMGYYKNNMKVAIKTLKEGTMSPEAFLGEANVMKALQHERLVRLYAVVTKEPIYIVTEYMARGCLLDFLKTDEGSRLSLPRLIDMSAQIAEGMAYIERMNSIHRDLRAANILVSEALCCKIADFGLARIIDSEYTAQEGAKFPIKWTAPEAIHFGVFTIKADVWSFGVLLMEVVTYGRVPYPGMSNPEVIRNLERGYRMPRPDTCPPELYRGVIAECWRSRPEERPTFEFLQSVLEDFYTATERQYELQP
UniProt P51813: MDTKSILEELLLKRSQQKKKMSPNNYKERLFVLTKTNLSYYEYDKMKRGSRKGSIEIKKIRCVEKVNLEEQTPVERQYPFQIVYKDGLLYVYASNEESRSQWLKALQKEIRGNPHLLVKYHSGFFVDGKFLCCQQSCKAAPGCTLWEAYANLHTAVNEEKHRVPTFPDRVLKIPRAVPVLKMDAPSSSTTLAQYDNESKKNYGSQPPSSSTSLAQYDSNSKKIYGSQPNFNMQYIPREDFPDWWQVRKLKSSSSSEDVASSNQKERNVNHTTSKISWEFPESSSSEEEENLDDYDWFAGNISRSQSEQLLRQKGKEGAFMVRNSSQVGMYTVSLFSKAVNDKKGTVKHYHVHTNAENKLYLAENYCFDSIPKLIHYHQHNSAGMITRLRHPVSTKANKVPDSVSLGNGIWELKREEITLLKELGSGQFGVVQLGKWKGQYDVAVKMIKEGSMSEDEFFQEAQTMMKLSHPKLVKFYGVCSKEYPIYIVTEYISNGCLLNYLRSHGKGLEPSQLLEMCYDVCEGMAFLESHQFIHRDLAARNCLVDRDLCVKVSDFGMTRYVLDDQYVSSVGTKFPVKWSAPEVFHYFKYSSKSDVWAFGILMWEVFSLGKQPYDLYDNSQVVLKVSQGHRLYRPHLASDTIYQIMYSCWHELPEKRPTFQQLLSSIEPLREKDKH
UniProt P15056, whole entry, looked up: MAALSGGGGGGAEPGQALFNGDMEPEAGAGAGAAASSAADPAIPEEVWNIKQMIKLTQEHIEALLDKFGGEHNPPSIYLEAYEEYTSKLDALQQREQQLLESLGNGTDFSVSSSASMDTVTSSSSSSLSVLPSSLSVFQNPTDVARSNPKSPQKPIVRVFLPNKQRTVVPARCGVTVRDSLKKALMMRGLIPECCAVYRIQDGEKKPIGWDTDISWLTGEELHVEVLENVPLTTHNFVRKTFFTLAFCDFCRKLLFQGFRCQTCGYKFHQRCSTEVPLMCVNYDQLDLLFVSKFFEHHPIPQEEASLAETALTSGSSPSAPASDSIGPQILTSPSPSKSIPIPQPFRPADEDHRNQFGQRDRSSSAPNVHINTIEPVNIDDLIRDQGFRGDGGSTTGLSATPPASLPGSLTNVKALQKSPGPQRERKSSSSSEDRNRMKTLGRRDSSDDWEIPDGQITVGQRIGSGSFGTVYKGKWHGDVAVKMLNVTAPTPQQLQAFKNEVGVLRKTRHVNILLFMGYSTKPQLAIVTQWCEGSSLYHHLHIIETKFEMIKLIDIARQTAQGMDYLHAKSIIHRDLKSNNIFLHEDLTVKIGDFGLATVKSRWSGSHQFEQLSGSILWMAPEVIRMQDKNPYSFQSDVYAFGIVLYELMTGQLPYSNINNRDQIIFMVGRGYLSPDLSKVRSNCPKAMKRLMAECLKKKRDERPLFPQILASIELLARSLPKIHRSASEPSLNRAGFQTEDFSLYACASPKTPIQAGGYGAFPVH

Tests used:
Test in all cases: kinase-Nluc reporter destabilization hit call (1 = scored as downregulated) (binary); higher = compound decreases kinase abundance
Conditions in all cases: K562; 2-18 h
ABL1 = ABL1 (UniProt P00519)
AKT1 = AKT1 (UniProt P31749)
ALK = ALK (UniProt Q9UM73)
ARAF = ARAF (UniProt P10398)
AURKA = AURKA (UniProt O14965)
AURKB = AURKB (UniProt Q96GD4)
AURKC = AURKC (UniProt Q9UQB9)
BLK = BLK (UniProt P51451)
BMX = BMX (UniProt P51813)
BRAF = BRAF (UniProt P15056)

| SMILES | kinase-Nluc reporter destabilization hit call (ABL1) | kinase-Nluc reporter destabilization hit call (AKT1) | kinase-Nluc reporter destabilization hit call (ALK) | kinase-Nluc reporter destabilization hit call (ARAF) | kinase-Nluc reporter destabilization hit call (AURKA) | kinase-Nluc reporter destabilization hit call (AURKB) | kinase-Nluc reporter destabilization hit call (AURKC) | kinase-Nluc reporter destabilization hit call (BLK) | kinase-Nluc reporter destabilization hit call (BMX) | kinase-Nluc reporter destabilization hit call (BRAF) |
| --- | --- | --- | --- | --- | --- | --- | --- | --- | --- | --- |
| Cc1ccn2c(C(=O)C(=O)c3ccccc3)c(-c3ccccc3)nc2c1 (10 µM) | inactive: 0 | inactive: 0 | inactive: 0 | inactive: 0 | inactive: 0 | inactive: 0 | inactive: 0 | inactive: 0 | inactive: 0 | inactive: 0 |
| O=C1NC(=O)/C(=C/c2ccc3nccc(-c4ccncc4)c3c2)S1 (10 µM) | active: 1 | inactive: 0 | inactive: 0 | inactive: 0 | inactive: 0 | inactive: 0 | inactive: 0 | inactive: 0 | inactive: 0 | inactive: 0 |
| CCOC(=O)N1C/C(=C/c2ccccc2F)C(=O)/C(=C\c2ccccc2F)C1 (2.5 µM) | inactive: 0 | inactive: 0 | inactive: 0 | inactive: 0 | inactive: 0 | inactive: 0 | inactive: 0 | inactive: 0 | inactive: 0 | inactive: 0 |
| c1ccc(-c2nc(=NCCN3CCOCC3)sn2-c2ccccc2)cc1 [VP3.15 (dihydrobromide)] (10 µM) | inactive: 0 | inactive: 0 | inactive: 0 | inactive: 0 | inactive: 0 | inactive: 0 | inactive: 0 | inactive: 0 | inactive: 0 | inactive: 0 |
| COc1ccc2cc(-c3nc(-c4ccc([S+](C)[O-])cc4)[nH]c3-c3ccncc3)ccc2c1 (stereo not given) [Tie2 kinase inhibitor 1] (2.5 µM) | inactive: 0 | inactive: 0 | inactive: 0 | inactive: 0 | inactive: 0 | inactive: 0 | inactive: 0 | inactive: 0 | inactive: 0 | inactive: 0 |
| O=c1cc(-c2cccc3c2Sc2ccccc2S3)oc(N2CCOCC2)c1 (10 µM) | inactive: 0 | inactive: 0 | inactive: 0 | inactive: 0 | inactive: 0 | inactive: 0 | inactive: 0 | inactive: 0 | inactive: 0 | inactive: 0 |
| CN(C)c1nc2c(Br)c(Br)c(Br)c(Br)c2[nH]1 (10 µM) | inactive: 0 | inactive: 0 | inactive: 0 | inactive: 0 | inactive: 0 | inactive: 0 | inactive: 0 | inactive: 0 | inactive: 0 | inactive: 0 |
| COc1ccc(-c2c(C)nn3c(NCCN4CCOCC4)cc(C)nc23)cc1OC (10 µM) | inactive: 0 | inactive: 0 | inactive: 0 | inactive: 0 | inactive: 0 | inactive: 0 | inactive: 0 | inactive: 0 | inactive: 0 | inactive: 0 |
| NC(=S)n1[nH]c(-c2ccc([N+](=O)[O-])cc2)c(N=Nc2cccc(Cl)c2)c1=O (2.5 µM) | inactive: 0 | inactive: 0 | inactive: 0 | inactive: 0 | inactive: 0 | inactive: 0 | inactive: 0 | inactive: 0 | inactive: 0 | inactive: 0 |
| O=Nc1c2[nH]c3ccccc3nc-2c2ccccc12 [IQ-1S (free acid)] (2.5 µM) | inactive: 0 | inactive: 0 | inactive: 0 | inactive: 0 | inactive: 0 | inactive: 0 | inactive: 0 | inactive: 0 | inactive: 0 | inactive: 0 |
| C=CC(=O)Nc1cc(Nc2nccc(-n3cc(CN(C)C)c(-c4ccccc4)n3)n2)c(OC)cc1N1CCOCC1 [Lazertinib] (10 µM) | inactive: 0 | inactive: 0 | inactive: 0 | inactive: 0 | inactive: 0 | inactive: 0 | inactive: 0 | inactive: 0 | inactive: 0 | inactive: 0 |
| Cc1cccc2c3c(ccc12)C(=O)C1=C(OCC1C)C3=O (stereo not given) [Dihydroisotanshinone I] (2.5 µM) | inactive: 0 | inactive: 0 | inactive: 0 | inactive: 0 | inactive: 0 | inactive: 0 | inactive: 0 | inactive: 0 | inactive: 0 | inactive: 0 |
| CC(C)c1cc(/C=C(\C#N)C(=O)NCCCc2ccccc2)cc(C(C)C)c1O (10 µM) | inactive: 0 | inactive: 0 | inactive: 0 | inactive: 0 | inactive: 0 | inactive: 0 | inactive: 0 | inactive: 0 | inactive: 0 | inactive: 0 |
| COc1cc2ncnc(Nc3ccc(F)c(Cl)c3)c2cc1NC(=O)/C=C/CN1CCCCC1 [Dacomitinib] (10 µM) | inactive: 0 | inactive: 0 | inactive: 0 | inactive: 0 | inactive: 0 | inactive: 0 | inactive: 0 | inactive: 0 | inactive: 0 | inactive: 0 |
| COc1cc(N2CCOCC2)ccc1NC(=O)c1csc(-c2cccnc2)n1 [IRAK inhibitor 6] (10 µM) | inactive: 0 | inactive: 0 | inactive: 0 | inactive: 0 | inactive: 0 | inactive: 0 | inactive: 0 | inactive: 0 | inactive: 0 | inactive: 0 |
| C=CC(=O)Nc1cccc(CNc2nc(Nc3ccc(N4CCN(C)CC4)cc3OC)ncc2Cl)c1 (10 µM) | inactive: 0 | inactive: 0 | inactive: 0 | inactive: 0 | inactive: 0 | inactive: 0 | inactive: 0 | inactive: 0 | inactive: 0 | inactive: 0 |
| CC(C)c1cccc(C(C)C)c1N1C(=O)c2ccc(N)cc2C1=O (2.5 µM) | inactive: 0 | inactive: 0 | inactive: 0 | inactive: 0 | inactive: 0 | inactive: 0 | inactive: 0 | inactive: 0 | inactive: 0 | inactive: 0 |
| CNC(=O)c1cc2c(Oc3ccc(NC(=S)NC(=O)Cc4ccccc4)cc3F)ccnc2cc1OC [TAS-115 mesylate] (10 µM) | inactive: 0 | inactive: 0 | inactive: 0 | inactive: 0 | inactive: 0 | inactive: 0 | inactive: 0 | inactive: 0 | inactive: 0 | inactive: 0 |
| CC1(C)Cc2c(sc(NC(=S)NC(=O)c3ccccc3)c2C(=O)O)CO1 (10 µM) | inactive: 0 | inactive: 0 | inactive: 0 | inactive: 0 | inactive: 0 | inactive: 0 | inactive: 0 | inactive: 0 | inactive: 0 | inactive: 0 |
| O=C(Nc1nc2ccccc2[nH]1)c1cccc([N+](=O)[O-])c1 [IRAK-4 protein kinase inhibitor 2] (10 µM) | inactive: 0 | inactive: 0 | inactive: 0 | inactive: 0 | inactive: 0 | inactive: 0 | inactive: 0 | inactive: 0 | inactive: 0 | inactive: 0 |
| Cn1cc(C2=C(c3cccc(N)c3)C(=O)NC2=O)c2ccccc21 (10 µM) | inactive: 0 | inactive: 0 | inactive: 0 | inactive: 0 | inactive: 0 | inactive: 0 | inactive: 0 | inactive: 0 | inactive: 0 | inactive: 0 |
| CC(C)=CC(=O)O[C@H]1Cc2cc3ccc(=O)oc3cc2OC1(C)C [Decursin] (10 µM) | inactive: 0 | inactive: 0 | inactive: 0 | inactive: 0 | inactive: 0 | inactive: 0 | inactive: 0 | inactive: 0 | inactive: 0 | inactive: 0 |
| CN1CCC(c2ccccc2CC(C)(C)Nc2nc(N3CCOCC3)nc(-n3c(C(F)F)nc4ccccc43)n2)CC1 [Zandelisib] (10 µM) | inactive: 0 | inactive: 0 | inactive: 0 | inactive: 0 | inactive: 0 | inactive: 0 | inactive: 0 | inactive: 0 | inactive: 0 | inactive: 0 |
| O=C(O)c1cc(=O)c2c(OCC(O)COc3cccc4oc(C(=O)O)cc(=O)c34)cccc2o1 [Cromolyn (sodium)] (10 µM) | inactive: 0 | inactive: 0 | inactive: 0 | inactive: 0 | inactive: 0 | inactive: 0 | inactive: 0 | inactive: 0 | inactive: 0 | inactive: 0 |
| O=C(Nc1nc(=O)n(Cc2ccc(Cl)cc2)s1)c1ccc(Cl)cc1 (10 µM) | inactive: 0 | inactive: 0 | inactive: 0 | inactive: 0 | inactive: 0 | inactive: 0 | inactive: 0 | inactive: 0 | inactive: 0 | inactive: 0 |
| Cc1ccc(Oc2nc3cc(-c4ccc(-c5ccccc5)cc4)c(Cl)cc3[nH]2)cc1C(=O)O (10 µM) | inactive: 0 | inactive: 0 | inactive: 0 | inactive: 0 | inactive: 0 | inactive: 0 | inactive: 0 | inactive: 0 | inactive: 0 | inactive: 0 |
| N#Cc1ccnc(Nc2cc(C3CCN(C4COC4)CC3)cc(N3CCC(F)(F)C3)n2)c1 (2.5 µM) | inactive: 0 | inactive: 0 | inactive: 0 | inactive: 0 | inactive: 0 | inactive: 0 | inactive: 0 | inactive: 0 | inactive: 0 | inactive: 0 |
| CC(C)CCNC(=O)c1ccc2c(c1)nc(Nc1n[nH]c3ccc(-c4ccccc4OC(F)(F)F)cc13)n2C1CCC(O)CC1 (stereo not drawn) [IRAK inhibitor 4 (trans)] (10 µM) | inactive: 0 | inactive: 0 | inactive: 0 | inactive: 0 | inactive: 0 | inactive: 0 | inactive: 0 | inactive: 0 | inactive: 0 | inactive: 0 |
| N#CC(c1ccnc(OCc2ccc(CN3CCOCC3)cc2)n1)c1nc2ccccc2s1 (stereo not given) [Bentamapimod] (2.5 µM) | inactive: 0 | inactive: 0 | inactive: 0 | inactive: 0 | inactive: 0 | inactive: 0 | inactive: 0 | inactive: 0 | inactive: 0 | inactive: 0 |
| Cc1cccc(-c2[nH]c(C(C)(C)C)nc2-c2ccc3nccnc3c2)n1 (10 µM) | inactive: 0 | inactive: 0 | inactive: 0 | inactive: 0 | inactive: 0 | inactive: 0 | inactive: 0 | inactive: 0 | inactive: 0 | inactive: 0 |

Just kinase-Nluc reporter destabilization hit call (AURKA), kinase-Nluc reporter destabilization hit call (AURKB) and kinase-Nluc reporter destabilization hit call (ALK), for some of the entries so far:
SMILES	kinase-Nluc reporter destabilization hit call (AURKA)	kinase-Nluc reporter destabilization hit call (AURKB)	kinase-Nluc reporter destabilization hit call (ALK)
NC(=S)n1[nH]c(-c2ccc([N+](=O)[O-])cc2)c(N=Nc2cccc(Cl)c2)c1=O (2.5 µM)	inactive: 0	inactive: 0	inactive: 0
O=Nc1c2[nH]c3ccccc3nc-2c2ccccc12 [IQ-1S (free acid)] (2.5 µM)	inactive: 0	inactive: 0	inactive: 0
